Values from PubChem BioAssay AID743121 (NCATS, 2013).
This is a random part of about 26,000 reagents. 167 of them (0.63%) count as active. 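Calls are per gene from RSA p-values that are not deposited; an individual active-marked siRNA can sensitise only weakly.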 The numbers tell different reagents against one gene apart.

Aim: 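Partners whose loss is lethal together with topoisomerase I blockade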 (primary screen)
Cells: MDA-MB-231 cells, a human breast cancer line
Reagents: single siRNA against human genes, 20 nM siRNA (0.8 pmol per well)
Duration: 120 h (drug added 48 h after transfection, read 72 h later)
Conditions: camptothecin 20 nM (about EC30) for 72 h; vehicle 0.1% DMSO in parallel plates
Detection: 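CellTiter-Glo ATP signal, scaled to control siRNA as percent viability; sensitisation given as log2 of untreated divided by camptothecin-treated viability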
Scale: log2 vehicle/camptothecin viability: higher = stronger sensitisation to camptothecin; viability with camptothecin and viability without drug: higher = more viable cells
Call rule: 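Each gene scored by redundant siRNA activity (RSA) over its individual siRNA ratios; a gene is called active at p < 0.001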

| gene symbol | reagent | log2 vehicle/camptothecin viability | viability with camptothecin (% of control) | viability without drug (% of control) | call |
| --- | --- | --- | --- | --- | --- |
| LIF | 1 | 0.147 | 66.1 | 73.2 | inactive |
| LIF | 2 | 0.134 | 74.5 | 81.8 | inactive |
| LIF | 3 | -0.128 | 72.4 | 66.2 | inactive |
| LIF | 4 | 0.0585 | 56.7 | 59 | inactive |
| DHRS12 | 1 | 0.0676 | 78.5 | 82.2 | inactive |
| DHRS12 | 2 | 0.364 | 63.5 | 81.8 | inactive |
| DHRS12 | 3 | -0.143 | 42 | 38 | inactive |
| DHRS12 | 4 | -0.206 | 52.2 | 45.2 | inactive |
| TNFRSF25 | 1 | -0.045 | 109 | 106 | inactive |
| TNFRSF25 | 2 | -0.273 | 107 | 88.9 | inactive |
| TNFRSF25 | 3 | -0.191 | 82.7 | 72.4 | inactive |
| TNFRSF25 | 4 | -0.116 | 59.2 | 54.7 | inactive |
| TNFRSF25 | 5 | -0.0951 | 75.1 | 70.3 | inactive |
| TNFRSF25 | 6 | -0.311 | 36.5 | 29.5 | inactive |
| MTMR4 | 1 | -0.164 | 57.6 | 51.4 | inactive |
| MTMR4 | 2 | -0.234 | 95.8 | 81.5 | inactive |
| MTMR4 | 3 | -0.247 | 75.7 | 63.8 | inactive |
| MTMR4 | 4 | 0.00192 | 82.3 | 82.4 | inactive |
| SLC38A2 | 1 | -0.268 | 113 | 93.8 | inactive |
| SLC38A2 | 2 | -0.727 | 88.4 | 53.4 | inactive |
| SLC38A2 | 3 | 0.15 | 49.5 | 54.9 | inactive |
| SLC38A2 | 4 | -0.319 | 110 | 88.6 | inactive |
| ADH1C | 1 | 0.217 | 72.9 | 84.7 | inactive |
| ADH1C | 2 | -0.267 | 111 | 92.1 | inactive |
| ADH1C | 3 | -0.2 | 108 | 93.7 | inactive |
| ADH1C | 4 | 0.0739 | 118 | 124 | inactive |
| NFATC3 | 1 | 0.144 | 101 | 111 | inactive |
| NFATC3 | 2 | -0.167 | 94 | 83.7 | inactive |
| NFATC3 | 3 | -0.14 | 109 | 99 | inactive |
| NFATC3 | 4 | -0.385 | 117 | 89.3 | inactive |

Just “viability with camptothecin (% of control)” (4 entries from above):
DHRS12 #2	63.5
DHRS12 #3	42
DHRS12 #4	52.2
TNFRSF25 #1	109
